PubChem BioAssay AID686943 | Drosophila RNAi Screening Center, 2013

Screen: 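Knockdowns that increase or decrease active ERK after insulin receptor stimulation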 (primary screen)
Cell system: Drosophila S2R+ haemocyte-like cells expressing YFP-tagged ERK (Rolled)
Reagent: long dsRNA against Drosophila genes
Conditions: insulin stimulation versus unstimulated cells; dose and duration not given
Read-out: 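Per-plate z-scores of phospho-ERK immunostaining normalised to YFP-tagged ERK, measured with and without insulin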
Scale: replicate 1, z-score of dpERK with insulin: higher = more active ERK per ERK-YFP after insulin
In all, the deposit lists about 23,000 reagents; this is an unselected part of those that have a named target and a result. 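Extra replicates exist only for a retested subset of genes; insulin dose and duration not given; both raised and lowered dpERK matter.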 Reagents against one gene are numbered here. Further read-outs or replicates are left out here. No sequences are given here. Not given: the amount of reagent, the time to read-out.

gene	reagent	replicate 1, z-score of dpERK with insulin
PH4alphaMP (prolyl-4-hydroxylase-alpha MP)	1	0.28
CG13041	1	-0.09
pira (pirate)	1	-0.36
Ada3 (transcriptional Adaptor 3)	1	1.32
Ada3 (transcriptional Adaptor 3)	2	0.24
CG10139	1	-0.28
CIAPIN1 (Cytokine induced apoptosis inhibitor 1)	1	0.43
CG5089	1	0.18
mago (mago nashi)	1	0.55
Pka-C1 (Protein kinase, cAMP-dependent, catalytic subunit 1)	1	-2.05
ninaG	1	-0.07
Spn28Dc (Serpin 28Dc)	1	-0.66
PGRP-LE (Peptidoglycan recognition protein LE)	1	-0.32
CG8545	1	-0.65
nbs	1	0.66
CG13921	1	0.06
CG4496	1	0.77
ste24b (ste24b prenyl protease type I)	1	0.77
Tango6 (Transport and Golgi organization 6)	1	2.23
CstF64 (Cleavage stimulation factor 64 kD subunit)	1	2.09
axed (axundead)	1	-0.34
axed (axundead)	2	0.02
Ppm1	1	1.24
loqs (loquacious)	1	-0.16
Lamtor5 (Late endosomal/lysosomal adaptor, MAPK and MTOR activator 5)	1	-1.37
CG14969	1	0.44
RhoGAP15B (Rho GTPase activating protein at 15B)	1	-0.28
RhoGAP15B (Rho GTPase activating protein at 15B)	2	0.23
CG6785	1	-0.82
CG16986	1	0.89
CG9525	1	0.95
CG16904	1	0.13
glob2 (globin 2)	1	-1.25
CG14613	1	0.25
CG5892	1	-0.23
CG34354	1	0.09
CG34354	2	-0.67
CG34354	3	-0.31
CG34354	4	1.32
CG30379	1	0.3
Doc3 (Dorsocross3)	1	0.13
Mmp2 (Matrix metalloproteinase 2)	1	1.11
Mmp2 (Matrix metalloproteinase 2)	2	0.12
wls (wntless)	1	0.11
CG32111 (retired record)	1	0.12
ssp2 (short spindle 2)	1	-0.12
CG31663	1	0.5
CG31663	2	0.19
CG31663	3	0.46
CG31663	4	-0.39
CG17834	1	0.88
EMRE (Essential MCU regulator)	1	0.41
CG31635	1	0.27
CG31635	2	-3.39
CG34159	1	-1.19
CG13084	1	0.26
cGlr1 (cGAS-like receptor 1)	1	0.34
CG32650	1	0.98
Strn-Mlck (Stretchin-Mlck)	1	0.4
Strn-Mlck (Stretchin-Mlck)	2	-0.09
Strn-Mlck (Stretchin-Mlck)	3	-0.67
Strn-Mlck (Stretchin-Mlck)	4	-0.68
Vps52 (Vacuolar protein sorting 52)	1	0.63
w (white)	1	-0.07
w (white)	2	-0.65
CG5704	1	0.39
Eaat2 (Excitatory amino acid transporter 2)	1	-0.31
Eaat2 (Excitatory amino acid transporter 2)	2	-0.24
Dlip1 (Dorsal interacting protein 1)	1	1.09
CG4004	1	-0.1
CG4004	2	-0.54
CG32568	1	0.45
CG7069	1	-0.19

Records above whose target name begins with R or r:
gene	reagent	replicate 1, z-score of dpERK with insulin
RhoGAP15B (Rho GTPase activating protein at 15B)	1	-0.28
RhoGAP15B (Rho GTPase activating protein at 15B)	2	0.23
